The experiment has as its target methyltransferase-like 14 (METTL14), endogenous (human (endogenous in HUVECs)) (UniProt Q9HCE5). Briefly: affinity purification with mass spectrometry; endogenous METTL14 complex precipitated with anti-METTL14 beads (blocked agarose beads as negative control), 4 °C, 1 mg input protein, SDS-PAGE, silver stain, LC-MS/MS; results say HUVECs, methods say 293T nuclear extracts.

Sequences of proteins named here, by UniProt entry; tags and fusion partners are left off.
UniProt Q9HCE5: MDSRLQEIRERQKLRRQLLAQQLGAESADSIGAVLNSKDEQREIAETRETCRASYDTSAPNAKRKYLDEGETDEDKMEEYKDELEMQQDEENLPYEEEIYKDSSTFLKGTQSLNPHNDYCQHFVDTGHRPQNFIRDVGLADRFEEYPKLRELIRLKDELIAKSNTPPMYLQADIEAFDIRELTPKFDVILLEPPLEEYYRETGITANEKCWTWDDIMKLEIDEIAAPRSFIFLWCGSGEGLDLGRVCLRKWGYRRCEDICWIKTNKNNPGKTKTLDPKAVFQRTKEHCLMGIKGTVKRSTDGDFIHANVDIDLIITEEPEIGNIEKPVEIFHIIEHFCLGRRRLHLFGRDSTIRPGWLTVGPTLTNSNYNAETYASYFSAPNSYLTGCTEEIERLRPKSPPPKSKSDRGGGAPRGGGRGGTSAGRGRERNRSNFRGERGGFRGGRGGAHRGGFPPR
UniProt Q12778: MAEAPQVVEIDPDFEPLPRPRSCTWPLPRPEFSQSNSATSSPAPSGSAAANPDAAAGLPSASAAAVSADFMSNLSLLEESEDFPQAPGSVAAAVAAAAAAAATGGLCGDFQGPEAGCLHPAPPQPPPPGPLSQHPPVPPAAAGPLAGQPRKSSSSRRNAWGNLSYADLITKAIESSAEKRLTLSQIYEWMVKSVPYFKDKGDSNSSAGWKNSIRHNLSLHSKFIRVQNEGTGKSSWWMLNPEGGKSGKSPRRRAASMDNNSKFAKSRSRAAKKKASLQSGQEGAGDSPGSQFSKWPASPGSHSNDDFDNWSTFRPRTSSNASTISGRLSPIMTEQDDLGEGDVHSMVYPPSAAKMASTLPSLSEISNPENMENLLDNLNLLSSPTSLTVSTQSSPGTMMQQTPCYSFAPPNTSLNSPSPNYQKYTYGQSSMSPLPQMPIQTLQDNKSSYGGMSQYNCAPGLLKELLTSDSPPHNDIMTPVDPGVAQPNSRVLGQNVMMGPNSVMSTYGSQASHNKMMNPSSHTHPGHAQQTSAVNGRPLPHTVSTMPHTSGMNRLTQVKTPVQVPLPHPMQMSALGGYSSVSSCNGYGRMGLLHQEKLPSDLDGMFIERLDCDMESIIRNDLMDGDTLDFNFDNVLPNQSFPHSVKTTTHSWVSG

The source of these data is paper PMC7415798.

No constants are given. Whether binding was seen depends on the method and setting. Binding seen in cells or lysates may run through a third protein. A yes stands for co-enrichment or nearness to the bait. Other partners may have been found.

As for “forkhead box O1 (FOXO1), endogenous (from UniProt Q12778 1-655)”, the binding result is “binds”.
